Experimental findings from the supplement of paper PMC10338343 are described below.

± gives the standard deviation. The entries are a selection whose mix differs from that of the whole data set. The uncertainty is large for many entries.
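Further: 1 nM active piRISC with 0.1 nM target library at 33 °C single turnover.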

The experiment concerns MIWI (PIWIL1) piRISC loaded with piRNA #1 (30 nt). Nature of the experiment: pre-steady-state target cleavage rate (min^-1); MIWI and MILI are mouse PIWI proteins and EfPiwi is from a freshwater sponge; tags in brackets are library labels; higher = faster piRNA-guided slicing of the target. As to conditions: guide: piRNA #1 5'p-UGAGGUAGUAGGUUGUAUAGUAUCCAGAGG; auxiliary factor: 500 nM mouse GTSF1. In short, it runs like this: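 For Cleave-'n-Seq, a transcribed, DNA-blocked target RNA library […] met 1 nM active affinity-purified piRISC with one synthetic guide at 33 °C for 0–8 or 0–960 min in HEPES–potassium acetate buffer, with or without 500 nM GTSF1 partner protein. Uncleaved targets were sequenced and normalised to depth and weakly complementary targets, with three trials pooled and k3 capped at 0.0001 min^-1. A burst-and-steady-state fit supplied the pre-steady-state cleavage rate.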
With GGAGACCAUACUAUACAUCCUAGUACCUCA, the “pre-steady-state target cleavage rate” value came to 0.343 ± 0.029. For the sequence GGAGACCAAACUAUACAACCUAGUACCUCA, the “pre-steady-state target cleavage rate” value was 0.226 ± 0.033.

In the case of “CCUCUGGAUACUAUACAACCUACUACCUCG [g2:g30:cont:t1G]”, the “pre-steady-state target cleavage rate” value was 1.32 ± 0.094. Turning to “GGUCUGGAUACUAUACAACCUACUAGGAGA [g6:g28:cont:t1A]”, the “pre-steady-state target cleavage rate” value was found to be 0.000205 ± 0.016. The figure for GGAGACCUAUGUAUACAACCUACUAGGACA is 0.000374 ± 0.015. The same measure for GGAGACCUAUGAAUACAACCUACUACCUGA: 0.000958 ± 0.0041.

Take GGACUGGAUACUAUACAACCUCACUACCUCA: the “pre-steady-state target cleavage rate” value turned out to be 0.00198 ± 0.0058. The same measure for GCUCUGGUUACUAUACAACCUACUACCUCA: 2.1 ± 0.12.

On to GGACUGGAAACUAUAGAACCUACUACCUCA, for which the “pre-steady-state target cleavage rate” value was 1.13 ± 0.08. As to GGAGACCUAUGAUAUGUUCCUACUAGGUCA, the “pre-steady-state target cleavage rate” value was found to be 0.000141 ± 0.041. In the case of GGACUGGAUACUAUACAACCUACUAGCACA, the “pre-steady-state target cleavage rate” value came out at 0.000422 ± 0.015. On to GGACUGGAUUCUAUACAACCUACUAGCUCA, for which the “pre-steady-state target cleavage rate” value stood at 0.118 ± 0.022. In the case of CCUCUGGAUAGUAUACAACCUACUUCCUCA, the “pre-steady-state target cleavage rate” value came out at 0.21 ± 0.034. GGAGAGGAUACGUAUACAACCUACUACCUCA: the “pre-steady-state target cleavage rate” value was 0.484 ± 0.047.

In the case of GGAGACCUAUGUAUAGAUCCUACUACCUCA, the “pre-steady-state target cleavage rate” value worked out at 0.00119 ± 0.0038.

Take CCUCAUGGAUACUAUACAACCUACUACCUCA: the “pre-steady-state target cleavage rate” value is 2.31 ± 0.13. Take CCUCUGGUUACUAUACAACCUACUACCACA: the “pre-steady-state target cleavage rate” value came out at 1.79 ± 0.14. Take “GGAGACGAUACUAUACAACCUACUACCUCC [g2:g24:cont:t1C]”: the “pre-steady-state target cleavage rate” value amounted to 1.5 ± 0.075. For GGACUGGAUACUAUACAACCUUGAACCUCA, the “pre-steady-state target cleavage rate” value came out at 0.000593 ± 0.009. As for GCUCUGGAUACUAUACAACCUUGAACCUCA, the “pre-steady-state target cleavage rate” value came out at 0.00263 ± 0.0027. Turning to GGUCUGGAUACUAUACAACCUAUACCUCA, the “pre-steady-state target cleavage rate” value is 0.00158 ± 0.0035. The figure for CCACUCGAUACUAUACAACCUACUACCUCA is 2.13 ± 0.14; for GGACUGGAUACUAUACAACCUACUUCGUCA it is 0.00241 ± 0.0026; for CCUCUGGAUACUAUACUACCUACUACCACA it is 1.68 ± 0.12. As to GGAGACCUAACUAUACAACCUACUUGGUCA, the “pre-steady-state target cleavage rate” value is 0.00154 ± 0.0084. As for GCUCUGGAUACUAUACCAACCUACUACCUCA, the “pre-steady-state target cleavage rate” value was 0.392 ± 0.075. The same measure for GGAGACCUAUGAAUACAUCCUACUACCUGA: 0.000324 ± 0.0048; for GGAGACCUAUGAUAUGUACGUUCUACCUCA: 0.000125 ± 0.024; for GGAGACCUAUGUUUACAUCCUACUACCUCA: 0.00238 ± 0.0028. On to GGAGUGGAUACUAUACUACCUACAACCUCA, for which the “pre-steady-state target cleavage rate” value turned out to be 0.428 ± 0.052.

For GCUCAGCAUACUAUACAACCUACUACCUCA, the “pre-steady-state target cleavage rate” value is 1.83 ± 0.11. As to GGAGACCUAUGAUUUCAUCCUACUACCUCA, the “pre-steady-state target cleavage rate” value turned out to be 0.000805 ± 0.0065. GGAGACCUAUCUAUACAAGGAACUACCUCA: the “pre-steady-state target cleavage rate” value is 0.00153 ± 0.0027. GGAGACCUAUGUAUACUACCUACUACCUGA: the “pre-steady-state target cleavage rate” value worked out at 0.00104 ± 0.0032. With GGAGACCUAUGAUAUGUUCGUACUACCUCA, the “pre-steady-state target cleavage rate” value was found to be 0.000124 ± 0.013.

With “GCUCUGGAUACUAUACAACCUACUACCUCG [g2:g29:cont:t1G]”, the “pre-steady-state target cleavage rate” value was found to be 1.29 ± 0.098.

Regarding CCUCUGGAUACUAUACAACCUACUACUUCA, the “pre-steady-state target cleavage rate” value is 2.32 ± 0.16.

GGUCUGGAUACUAUACAACCUUGAACCUCA: the “pre-steady-state target cleavage rate” value stood at 0.000225 ± 0.019.

As for CUUCUGGAUACUAUACAACCUACUACCUCA, the “pre-steady-state target cleavage rate” value is 1.99 ± 0.11. Turning to “GGACUGGAUACUAUACAACCUACUAGGAGA [g6:g27:cont:t1A]”, the “pre-steady-state target cleavage rate” value turned out to be 0.000121 ± 0.026.
